Data set [1] can be described thus: Serum global metabolomics and complex lipid profiling: wild versus Navy dolphins (Welch's two-sample t-tests). Conditions: metabolites significantly higher in wild (Sarasota Bay) than in Navy dolphins. In kind it is in vivo, Bottlenose dolphins (Tursiops truncatus).
The nature of data set [2]: Modified fish diet study: fold differences of serum metabolites. In kind it is in vivo, Bottlenose dolphins (Tursiops truncatus). Conditions: for Significant fold differences in serum between Month 0 and Month 1 in Modified Diet group: Month 1 vs Month 0.

For some assays here: No dose or concentration is given here for some results. Square brackets hold non-standard residues; d marks the D form. Peptide text beside a SMILES is read from it. Hyp = O=C(O)[C@@H]1C[C@@H](O)CN1

On to `O=C(O)/C=C/c1cnc[nH]1` [Trans-urocanate], for which, in data set [1], the “Ratio of serum-based levels in wild versus Navy dolphins” value (“Ratio of serum-based levels” for short) stood at 4.36.

As for `CC(C)(O)C(O)C(=O)O` (centres unmarked) [2,3-dihydroxyisovalerate], in data set [2], the “Significant fold differences in serum between Baseline and Modified Diet groups at Month 1” value (“Significant fold differences … at Month 1” below) was determined as 2.02; the “Significant fold differences in serum between Month 0 and Month 1 in Modified Diet group” value turned out to be 1.89. Moreover, the “Ratio of serum-based levels” value in data set [1] turned out to be 1.72.

Take `O=C(O)CCCCCCCCCCCCCCCCCCCCC(=O)O` [Docosadioate (C22-DC), docosadioate]: in data set [2], the “Significant fold differences in serum between Month 0 and Month 1 in Modified Diet group” value was 1.39. Also, the “Ratio of serum-based levels” value in data set [1] was 2.32.

With `N[C@@H](CCCCNCC(=O)O)C(=O)O` [N6-carboxymethyllysine], in data set [2], the “Significant fold differences … at Month 1” value amounted to 1.78; the “Significant fold differences in serum between Month 0 and Month 1 in Modified Diet group” value is reported as 2.11. Also, the “Ratio of serum-based levels” value in data set [1] came out at 2.3.

In the case of `O=C(O)CCCC(=O)C(=O)O` [2-oxoadipate], in data set [2], the “Significant fold differences in serum between Month 0 and Month 1 in Modified Diet group” value is given as 1.25. Also, the “Ratio of serum-based levels” value in data set [1] amounted to 6.51.

On to `CCC(=O)NCC(=O)O` [Propionylglycine], for which the “Ratio of serum-based levels” value in data set [1] was 3.35.

With `Cn1cc(C(N)=O)ccc1=O` [N1-Methyl-2-pyridone-5-carboxamide], in data set [2], the “Significant fold differences … at Month 1” value was 1.38. Besides, in data set [1], the “Ratio of serum-based levels” value is recorded as 1.39.

In the case of `CC(=O)NCCc1c[nH]cn1` [N-acetylhistamine], in data set [2], the “Significant fold differences … at Month 1” value is given as 5.36; the “Significant fold differences in serum between Month 0 and Month 1 in Modified Diet group” value is 7.68. For the same molecule, the “Ratio of serum-based levels” value in data set [1] came out at 8.93.

Turning to `N[C@@H](CC(O)C(=O)O)C(=O)O` (some centres unmarked) [4-hydroxyglutamate], in data set [2], the “Significant fold differences … at Month 1” value was determined as 1.74; the “Significant fold differences in serum between Month 0 and Month 1 in Modified Diet group” value was determined as 1.75. In data set [1], the “Ratio of serum-based levels” value is listed as 4.78.

Take `O=C(O)[C@@H]1C[C@@H](O)CN1C(=O)[C@@H]1CCCN1` [Prolyl-hydroxyproline] (H-Pro-[Hyp]-OH): in data set [2], the “Significant fold differences … at Month 1” value came to 1.44; the “Significant fold differences in serum between Month 0 and Month 1 in Modified Diet group” value is on record as 1.25. Further, the “Ratio of serum-based levels” value in data set [1] is 2.66.

As for “lignoceroylcarnitine [Lignoceroylcarnitine (C24)]”, in data set [2], the “Significant fold differences … at Month 1” value is reported as 2.8; the “Significant fold differences in serum between Month 0 and Month 1 in Modified Diet group” value turned out to be 2.81. Further, the “Ratio of serum-based levels” value in data set [1] is on record as 4.60.

With `CCCCCCCCCCCCCCCCCCCC(=O)O` [FFA (20:0)], in data set [1], the “Ratio of serum-based levels” value was 2.62.

With `NCC(O)CC[C@H](N)C(=O)O` (some centres unmarked) [5-hydroxylysine], in data set [2], the “Significant fold differences … at Month 1” value is given as 1.28; the “Significant fold differences in serum between Month 0 and Month 1 in Modified Diet group” value stood at 1.28. Further, the “Ratio of serum-based levels” value in data set [1] amounted to 5.60.

Regarding `O=C(O)CCc1cnc[nH]1` [Imidazole propionate], the “Significant fold differences in serum between Month 0 and Month 1 in Modified Diet group” value in data set [2] is given as 3.48. In addition, the “Ratio of serum-based levels” value in data set [1] is 4.52.

“behenoylcarnitine [Behenoylcarnitine (C22)]”: in data set [2], the “Significant fold differences … at Month 1” value is listed as 1.32; the “Significant fold differences in serum between Month 0 and Month 1 in Modified Diet group” value amounted to 1.48. The “Ratio of serum-based levels” value in data set [1] stood at 2.73.

In the case of `CCCCCCCCCCCCC(O)C(=O)O` (centres unmarked) [2-hydroxymyristate], the “Ratio of serum-based levels” value in data set [1] came out at 1.23.

Take `NCCCCC(=O)O` [5-aminovalerate]: in data set [2], the “Significant fold differences … at Month 1” value is listed as 1.35; the “Significant fold differences in serum between Month 0 and Month 1 in Modified Diet group” value was determined as 1.68. Also, in data set [1], the “Ratio of serum-based levels” value was 6.46.

As to “cerotoylcarnitine [Cerotoylcarnitine (C26)]”, in data set [2], the “Significant fold differences … at Month 1” value was 3.38; the “Significant fold differences in serum between Month 0 and Month 1 in Modified Diet group” value amounted to 2.88. The “Ratio of serum-based levels” value in data set [1] is recorded as 5.93.

In the case of `O=C(O)Cc1c[nH]cn1` [4-imidazoleacetate], in data set [2], the “Significant fold differences in serum between Month 0 and Month 1 in Modified Diet group” value was determined as 3.94. In data set [1], the “Ratio of serum-based levels” value turned out to be 5.94.

As for `CCCCCCCCCCCCCCCC(=O)OCC(COP(=O)(O)OCCN)OC(=O)CCCCCCCCCCCCCCC` (centres unmarked) [PE (16:0/16:0)], the “Ratio of serum-based levels” value in data set [1] turned out to be 1.54.

On to `N[C@@H](CCC(=O)NCC(=O)O)C(=O)O` [Gamma-glutamylglycine], for which the “Ratio of serum-based levels” value in data set [1] is on record as 1.31.

In the case of `CCCCC/C=C\C/C=C\C/C=C\C/C=C\CCCC(=O)O[C@H](CO/C=C\CCCCCCCCCCCCCC)COP(=O)(O)OCCN` [1-(1-enyl-palmitoyl)-2-arachidonoyl-GPE (P-16:0/20:4)], in data set [2], the “Significant fold differences … at Month 1” value is listed as 2.01; the “Significant fold differences in serum between Month 0 and Month 1 in Modified Diet group” value came to 1.93.

As to “oleoyl-arachidonoyl-glycerol (18:1/20:4) [1]”, in data set [2], the “Significant fold differences … at Month 1” value is 1.68; the “Significant fold differences in serum between Month 0 and Month 1 in Modified Diet group” value was determined as 1.65.

Turning to `O=C(O)CCC1NC(=O)NC1=O` (centres unmarked) [Hydantoin 5-propionic acid], in data set [1], the “Ratio of serum-based levels” value worked out at 1.83.

With sphingomyelin (d18:2/23:1), in data set [2], the “Significant fold differences … at Month 1” value is reported as 1.32; the “Significant fold differences in serum between Month 0 and Month 1 in Modified Diet group” value is recorded as 1.16.

Turning to “sphingomyelin (d17:1/16:0, d18:1/15:0, d16:1/17:0)”, in data set [2], the “Significant fold differences … at Month 1” value was 2.88; the “Significant fold differences in serum between Month 0 and Month 1 in Modified Diet group” value turned out to be 2.56.

As to “cis-4-decenoylcarnitine [Cis-4-decenoylcarnitine (C10:1)]”, in data set [2], the “Significant fold differences … at Month 1” value was determined as 2.13; the “Significant fold differences in serum between Month 0 and Month 1 in Modified Diet group” value was determined as 2.7.

For the molecule “oleoyl-arachidonoyl-glycerol (18:1/20:4) [2]”, in data set [2], the “Significant fold differences … at Month 1” value is 3.37; the “Significant fold differences in serum between Month 0 and Month 1 in Modified Diet group” value stood at 2.93.

For the molecule `CCCCCCCCCCCCC/C=C/[C@@H](O)[C@H](COP(=O)([O-])OCC[N+](C)(C)C)NC(=O)CCCCCCCCCCCCCCCCC` [Stearoyl sphingomyelin (d18:1/18:0), stearoyl sphingomyelin (d18:1/18:0)], in data set [2], the “Significant fold differences … at Month 1” value came out at 1.24; the “Significant fold differences in serum between Month 0 and Month 1 in Modified Diet group” value is 1.21.

With `CCCCC/C=C\C/C=C\C/C=C\C/C=C\CCCC(=O)OC[C@@H](O)COP(=O)([O-])OCC[N+](C)(C)C` [1-arachidonoyl-GPC (20:4n6)], in data set [2], the “Significant fold differences … at Month 1” value is 2.22; the “Significant fold differences in serum between Month 0 and Month 1 in Modified Diet group” value was 2.33.

In the case of `CCCCCCCCCCCCCCC=COCC(O)COP(=O)([O-])OCC[N+](C)(C)C` (centres unmarked) [1-(1-enyl-palmitoyl)-GPC (P-16:0)], in data set [2], the “Significant fold differences … at Month 1” value is 1.42; the “Significant fold differences in serum between Month 0 and Month 1 in Modified Diet group” value is on record as 1.27.

The record behind these values is US11992473B2, “Compositions and methods for diagnosis and treatment of conditions related to the quality of aging and longevity” (Epitracker, Inc., priority 2018, dated 2024).
